Data as given in PubChem BioAssay AID493246 (Drosophila RNAi Screening Center, 2011).

Aim: 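Genome-wide search for dsRNAs that reduce cell number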 (primary screen)
Cell system: Drosophila Kc and S2R+ cells
Knock-down reagent: long dsRNA against Drosophila genes
Measured: 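Raw, unnormalised count of remaining cells in each well; per-plate z-scores of cell number underlie the calls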
Direction: Kc cell number and S2R+ cell number: higher = more cells remaining
Hit rule: 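Counted as a hit if cell number falls by a z-score of at least 3 within its plate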
The deposit covers about 21,000 reagents; below is an unselected part of those that have a named target and a result. Of all reagents, 429 (2%) are marked active. 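Values are raw and not normalised between plates; calls rest on per-plate z-scores that were not deposited.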 Entries without a mark were called inactive. A plus sign joins genes that one reagent is predicted to hit. Not given: the amount of reagent, the time to read-out.

With knock-down of CG12341 [DRSC06133] the results were Kc cell number, rep 1 = 1.61e6; Kc cell number, rep 2 = 1.68e6; S2R+ cell number, rep 1 = 1.31e6; S2R+ cell number, rep 2 = 1.48e6.
Against idc [DRSC15680], the values are Kc cell number, rep 1 = 1.36e6; Kc cell number, rep 2 = 1.49e6; S2R+ cell number, rep 1 = 1.12e6; S2R+ cell number, rep 2 = 1.13e6.
With knock-down of CG6481 [DRSC19995] the results were Kc cell number, rep 1 = 1.57e6; Kc cell number, rep 2 = 1.57e6; S2R+ cell number, rep 1 = 1.14e6; S2R+ cell number, rep 2 = 1.30e6.
Knock-down of Hr96 [DRSC16707] gave: Kc cell number, rep 1 = 1.61e6; Kc cell number, rep 2 = 1.62e6; S2R+ cell number, rep 1 = 1.35e6; S2R+ cell number, rep 2 = 1.39e6.
After knock-down of CG11360 [DRSC17124], the screen gave Kc cell number, rep 1 = 1.26e6; Kc cell number, rep 2 = 1.22e6; S2R+ cell number, rep 1 = 1.02e6; S2R+ cell number, rep 2 = 1.11e6.
For CG11360 [DRSC17134], the values are Kc cell number, rep 1 = 1.44e6; Kc cell number, rep 2 = 1.46e6; S2R+ cell number, rep 1 = 1.04e6; S2R+ cell number, rep 2 = 1.15e6.
Knock-down of dia [DRSC03519] resulted in: Kc cell number, rep 1 = 1.48e6; Kc cell number, rep 2 = 1.56e6; S2R+ cell number, rep 1 = 1.25e6; S2R+ cell number, rep 2 = 3.50e5.
After knock-down of DJ-1alpha [DRSC07005], the record shows Kc cell number, rep 1 = 1.61e6; Kc cell number, rep 2 = 1.57e6; S2R+ cell number, rep 1 = 1.25e6; S2R+ cell number, rep 2 = 1.43e6.
Depletion of Camta [DRSC06440] came out at: Kc cell number, rep 1 = 1.58e6; Kc cell number, rep 2 = 1.71e6; S2R+ cell number, rep 1 = 1.22e6; S2R+ cell number, rep 2 = 1.36e6.
For Camta [DRSC06441], the entry reads Kc cell number, rep 1 = 1.52e6; Kc cell number, rep 2 = 1.45e6; S2R+ cell number, rep 1 = 7.12e5; S2R+ cell number, rep 2 = 7.91e5.
After knock-down of Camta [DRSC07272], the record shows Kc cell number, rep 1 = 1.35e6; Kc cell number, rep 2 = 1.37e6; S2R+ cell number, rep 1 = 1.14e6; S2R+ cell number, rep 2 = 1.18e6.
With knock-down of egl [DRSC04682], the record shows Kc cell number, rep 1 = 1.74e6; Kc cell number, rep 2 = 1.81e6; S2R+ cell number, rep 1 = 1.25e6; S2R+ cell number, rep 2 = 1.34e6.
Sod2 [DRSC07554] gave Kc cell number, rep 1 = 1.42e6; Kc cell number, rep 2 = 1.47e6; S2R+ cell number, rep 1 = 1.21e6; S2R+ cell number, rep 2 = 1.22e6.
With knock-down of CG31769 [DRSC01361], the screen gave Kc cell number, rep 1 = 1.49e6; Kc cell number, rep 2 = 1.66e6; S2R+ cell number, rep 1 = 9.61e5; S2R+ cell number, rep 2 = 1.17e6.
With knock-down of Acsx4 [DRSC14311], the record shows Kc cell number, rep 1 = 1.16e6; Kc cell number, rep 2 = 1.13e6; S2R+ cell number, rep 1 = 1.04e6; S2R+ cell number, rep 2 = 1.15e6.
Silencing of Sxl + CG14425 (retired record) [DRSC18721] gave: Kc cell number, rep 1 = 6.23e5; S2R+ cell number, rep 1 = 9.65e5.
Sxl + CG14425 (retired record) [DRSC18722] showed Kc cell number, rep 1 = 1.56e6; Kc cell number, rep 2 = 1.54e6; S2R+ cell number, rep 1 = 1.06e6; S2R+ cell number, rep 2 = 1.19e6.
Against rempA [DRSC00327] the deposit lists Kc cell number, rep 1 = 1.45e6; Kc cell number, rep 2 = 1.50e6; S2R+ cell number, rep 1 = 1.04e6; S2R+ cell number, rep 2 = 1.21e6.
After knock-down of CG5078 [DRSC11762] the results were Kc cell number, rep 1 = 1.37e6; Kc cell number, rep 2 = 1.43e6; S2R+ cell number, rep 1 = 1.34e6; S2R+ cell number, rep 2 = 1.36e6.
With knock-down of mld [DRSC13681], the record shows Kc cell number, rep 1 = 1.04e6; Kc cell number, rep 2 = 1.46e6; S2R+ cell number, rep 1 = 1.03e6; S2R+ cell number, rep 2 = 1.03e6.
Knock-down of mld [DRSC14622] gave: Kc cell number, rep 1 = 1.50e6; Kc cell number, rep 2 = 1.54e6; S2R+ cell number, rep 1 = 1.15e6; S2R+ cell number, rep 2 = 1.25e6.

A few values from the list:
Value of Camta [DRSC07272] in “S2R+ cell number, rep 1”: 1.14e6
Entry of Camta [DRSC06441] in “S2R+ cell number, rep 2”: 7.91e5
